Data from publication PMC3392246.
Results are given in words; binding and its absence hold for the method and conditions named. In cells and extracts the contact can be indirect. Some entries that bind do so weakly or less than the wild type. Where a sequence is shown, tags or fusion partners need not be part of it.

The chains behind the UniProt entries cited, without tags or fusion partners.
UniProt O60260: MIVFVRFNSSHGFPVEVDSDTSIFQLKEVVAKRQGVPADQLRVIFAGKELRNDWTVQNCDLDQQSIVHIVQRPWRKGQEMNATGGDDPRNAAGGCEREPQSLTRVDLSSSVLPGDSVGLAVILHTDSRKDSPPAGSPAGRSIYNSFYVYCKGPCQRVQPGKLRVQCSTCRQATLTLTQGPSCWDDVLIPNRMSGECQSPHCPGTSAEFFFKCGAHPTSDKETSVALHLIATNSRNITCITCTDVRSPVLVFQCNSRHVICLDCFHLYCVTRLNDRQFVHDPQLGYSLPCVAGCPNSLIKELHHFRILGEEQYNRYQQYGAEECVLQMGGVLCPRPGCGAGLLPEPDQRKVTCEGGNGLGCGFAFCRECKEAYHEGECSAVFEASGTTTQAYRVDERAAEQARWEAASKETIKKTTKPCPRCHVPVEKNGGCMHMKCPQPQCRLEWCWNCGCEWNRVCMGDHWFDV

Target: 1myc-Parkin (52 kD) (UniProt O60260)
Assay: co-IP; COS-7 cells co-transfected with 1myc-Parkin and AU5-ARTS or Flag-Sept4_i1; lysates subjected to IP with anti-ARTS, anti-myc or anti-Parkin antibody, then Western blot; IP lysis buffer 150 mM NaCl, 50 mM Tris-HCl pH 8, 1% NP-40, 0.5% Na-deoxycholate

B1: Flag-Sept4_i1 (protein, UniProt O43236-1 1-478)
chain: MDRSLGWQGNSVPEDRTEAGIKRFLEDTTDDGELSKFVKDFSGNASCHPPEAKTWASRPQVPEPRPQAPDLYDDDLEFRPPSRPQSSDNQQYFCAPAPLSPSARPRSPWGKLDPYDSSEDDKEYVGFATLPNQVHRKSVKKGFDFTLMVAGESGLGKSTLVNSLFLTDLYRDRKLLGAEERIMQTVEITKHAVDIEEKGVRLRLTIVDTPGFGDAVNNTECWKPVAEYIDQQFEQYFRDESGLNRKNIQDNRVHCCLYFISPFGHGLRPLDVEFMKALHQRVNIVPILAKADTLTPPEVDHKKRKIREEIEHFGIKIYQFPDCDSDEDEDFKLQDQALKESIPFAVIGSNTVVEARGRRVRGRLYPWGIVEVENPGHCDFVKLRTMLVRTHMQDLKDVTRETHYENYRAQCIQSMTRLVVKERNRNKLTRESGTDFPIPAVPPGTDPETEKLIREKDEELRRMQEMLHKIQKQMKENY
Question: Which binding does the source give for B1 here?
Answer: The binding was “binds”.
